Reference: patent publication US20130095194A1 (L'Air Liquide, Société Anonyme pour I'Etude et …, priority 2011, published 2013)
Some results were stated once for a whole list of compounds, not compound by compound. At least one compound was matched to its structure with a doubt left.

System: neuropathic pain caused by oxaliplatin in rats
Assay: Randall-Selitto pain thresholds in rats given repeated intraperitoneal oxaliplatin (chemo-induced neuropathic pain model)
Conditions: rats given oxaliplatin 2 mg/kg; gas/O2 (50%-50%) inhaled for 1 hour with each administration
Description: A preclinical study in rats was carried out.
In order to mimic the clinical use as closely as possible, a series of 8 intraperitoneal injections of oxaliplatin were given every 3 to 4 days, as illustrated in FIG. 2. This model is well known in the literature and gives an account of chemo-induced neuropathic pain.
The pain thresholds were evaluated by means of a Randall-Selitto device by applying an increasing pressure to the paw of the rat until the animal lets out a cry. The corresponding weight in grams is then noted (the Y-axis in FIG. 2). Thus, the earlier the animal cries out, for a low weight, the more pain it has.

## [Xe] [xenon]
  duration of the preventive effect on long-term hypersensitivity to pain after the final administration of oxaliplatin: more than 2 weeks
